Experimental data taken from patent US20240294663A1.
Substitutions are numbered along the chain they refer to. Numbers in names are those of the source. Results are given in words; binding and its absence hold for the method and conditions named. Some entries that bind do so weakly or less than the wild type.

Sequences of proteins named here, by UniProt entry; tags and fusion partners are left off. A change or cut given only in a name is not applied to a line headed by its entry. A line that says so, or that is headed by a name, gives the form on record, which may keep a tag or linker.
purified MSLN ectodomain (Q13421, form named): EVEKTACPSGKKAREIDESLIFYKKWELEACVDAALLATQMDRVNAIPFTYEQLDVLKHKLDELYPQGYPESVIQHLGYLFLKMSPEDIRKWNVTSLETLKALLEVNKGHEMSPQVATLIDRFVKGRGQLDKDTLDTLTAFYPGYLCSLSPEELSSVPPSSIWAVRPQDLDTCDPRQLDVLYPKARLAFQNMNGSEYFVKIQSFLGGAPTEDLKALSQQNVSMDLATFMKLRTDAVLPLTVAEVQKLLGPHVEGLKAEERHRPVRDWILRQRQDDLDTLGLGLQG

B1: anti-MSLN 1A12 antibody (Parent Clone) (antibody, human IgG1, kappa, N297A, V domains shown)
VH: EVQLLESGGGLVQPGGSLRLSCAASGLTFRSYAMTWVRQAPGKGLEWVSGISVSGGITYYADSVKGRFTISRDNSKNTLYLQMNSLRAEDTAVYYCAKRGAAVGSFDYWGQGTLVTVSS
VL: DIQMTQSPSSLSASVGDRVTITCRSSQGIGSWLAWYQQKPEKAPQSLIYAASSLQSGVPSRFSGSGSGTDFTLTISNLQPEDFATYYCQQYNSYPLTFGGGTKVEIKR
B2: 1A12 light chain variant SMT573 (N92A) (antibody, V domains shown)
VH: B1 VH
VL: B1 VL with N92A
B3: 1A12 light chain variant SMT572 (N92S) (antibody, V domains shown)
VH: B1 VH
VL: B1 VL with N92S
B4: 1A12 heavy chain variant SMT577 (D62E) (antibody, human IgG1, kappa, N297A, V domains shown)
VH: B1 VH with D62E
VL: B1 VL
B5: 1A12 heavy chain variant SMT578 (D62S) (antibody, human IgG1, kappa, N297A, V domains shown)
VH: B1 VH with D62S
VL: B1 VL
B6: 1A12 heavy chain variant SMT579 (D62A) (antibody, human IgG1, kappa, N297A, V domains shown)
VH: B1 VH with D62A
VL: B1 VL
B7: 1A12 heavy chain variant SMT580 (S63T) (antibody, human IgG1, kappa, N297A, V domains shown)
VH: B1 VH with S63T
VL: B1 VL
B8: 1A12 heavy chain variant SMT581 (S63V) (antibody, human IgG1, kappa, N297A, V domains shown)
VH: B1 VH with S63V
VL: B1 VL

Target: purified MSLN ectodomain (human) (UniProt Q13421)
Test: SPR (Carterra LSA), antibody captured on anti-human IgG, MSLN ectodomain as analyte

| Binder | binding |
| --- | --- |
| B1 | binds |
| B2 | binds |
| B3 | binds |
| B4 | binds |
| B5 | binds |
| B6 | binds |
| B7 | binds |
| B8 | binds |
